Measurements reported in patent publication US20250353895A1, “METHOD FOR ANALYZING G-PROTEIN CONJUGATED RECEPTOR” (Kao Corporation, priority 2022, published 2025).

The molecules below were run on HEK293 cells (assay: Measurement of receptor protein level on cell membrane (flow cytometry), receptor gene co-transfected with RTP1S). Conditions: consensus receptor on HEK293 cells; PE signal normalised, NC (no receptor) 0%, PC (FLAG-M2 acetylcholine receptor) 100%; average of three experiments.
Type: cell-based, human

| Molecule | Consensus Membrane expression level (%) |
| --- | --- |
| consensus GPR82: consensus GPCR of human GPR82 (protein) MNNNSTCIQPSMISSMALPIIYIFLCIVGLFGNSLSQWVFLTKIGKKTSTHIYLAHLVTANLLVCSAMPFMSIYFLKGFQWEYQSAQCRVVNFLGTLSMHVSMFVSLLILSWIAISRYATLMKKDSSQETTSCYEKIFYGHLLKKFRQPNFARKLCIYIWGVVLGIIIPVIIYYSVVEATEGEESLCYNRQMELGAMISQIAGLIGTTFIGFSFLVVLTSYYSFVSHLRKIRTCTSIMEKDLTYSSVKRHLLVIQILLIVCFLPYSIFKPIFYVLHQRDDCQQLNYLIEIKNILTCLASARSSTDPIIFLLLDKTFKKTLYNLFTKSNSHMQSYG | 113.22 |
| consensus MrgprF: consensus GPCR of human MrgprF (protein) MAGNCSWEAHPGNRNKMCPGLSEAPELYSRGFLTIEQIAMLPPPAVMNYIFLLLCLCGLVGNGLVLWFFGFSIKRNPFSIYFLHLASADVGYLFSKAVFSILNTGGFLGTFADYVRAVCRILGLCMFLTGVSLLPAISAERCLSVIFPAWYWRRRPKRLSAVVCALLWVLSLLVTCIHNYFCVFLGRGASGAACRHMDIFLGILLFLVFCPLMVLPCLALILHVECRARRRQRSAKLNHVILAMVSVFLVSSIYLGIDWFLFWVFQIPAPFPEYVTDLCICINSSAKPVVYFLAGRDKSQRLWEPLRVVFQRALRDGAELGEAGGGTPNTVTMEMQCPSGNAS | 136.39 |
| consensus VN1R2: consensus GPCR of human VN1R2 (protein) MASVDLFIGMIVLFQVVVGILGNFSLLYHYMFLYFRGCKPRSTDLILRHLTVANSLVILSRGIPETMAAFGLKHFDNYFGCKFLLYVHRVARGVSIGSTCLLSVFQVITINPRNSRWAEMKVKAPKYIGLSSILCWVLHMLVNAIFPIYTTGKWSNKNITKKGDLGYCSAPLHDEVIKSVYAALTSFHDVLCLGLMTWASSSMVFVLYRHKQQVQHIHRNNLSPRSSPENRATQSILVLVSTFVSFYALSSIIYVYLALFDNSSWWLVNTAALITACFPTISPFVLMCHDPSISRLCCICCGRNR | 14.42 |
| consensus TAAR9: consensus GPCR of human TAAR9 (protein) MVNNFSQAEAVELCYENVNGSCIKTPYSPGPRAILYAVLGFGAVLAVFGNLLVIIAILHFKQLHTPTNFLIASLACADFLVGVTVMPFSTVRSVESCWYFGESYCKFHTCFDTSFCFASLFHLCCISIDRYIAVTDPLTYPTKFTVSVSGICIVLSWFFSVTYSFSIFYTGANEEGIEELVVALTCVGGCQAPLNQNWVLLCFLLFFIPTVAMVFIYGKIFLVAKHQARKIESTASQAQSSSESYKERVAKRERKAAKTLGIAMAAFLVSWLPYIIDAVIDAYMNFITPPYVYEILVWCVYYNSAMNPLIYAFFYPWFRKAIKLIVSGKVLRTDSSTTNLFSEEADTD | 5.31 |
| consensus GPR171: consensus GPCR of human GPR171 (protein) MTNSSFFCPVYKDLEPFTYFFYLVFLVGIIGSCFATWAFIQKNTNHRCVSIYLINLLTADFLLTLALPVKIVVDLGVAPWKLRIFHCQVTACLIYINMYLSIIFLAFVSIDRCLQLTHSCKIYRIQEPGFAKMISTVVWLMVLLIMVPNMMIPIKDIKEKPNVGCMEFKKEFGRNWHLLTNFICVAIFLNFSAIILISNCLVIRQLYRNKDNENYPNVKKALINILLVTAGYIICFVPYHIVRIPYTLSQTEVISDCSTRISLFKAKEATLLLAVSNLCFDPILYYHLSKAFRLKVTETFASPKETKAQKEKLRCENNA | 108.04 |
| consensus TAAR5: consensus GPCR of human TAAR5 (protein) MRAVFIQGAEEHPAAFCYQVNGSCPRTVHPLGIQLAIYLACAAGMLITVLGNLFVVFAVSYFKALHTPTNFLLLSLALADMLLGLLVLPLSTIRSVESCWFFGDFLCRLHTYLDTLFCLTSIFHLCFISIDRHCAICDPLLYPSKFTVRVALRYILAGWGVPAAYTAFFLYTDVVETGLSQWLEEMPCVGSCQLLFNKFWGWLNFPVFFFPCLIMISLYVKIFVVATRQAQQITTLSKSLAGAAKRERKAAKTLGIAVGIYLLCWLPFTIDTMVDSLLNFITPPLVFDIFIWFAYFNSACNPIIYVFSYRWFRKALKLTLSQKIFSPRTRTVDLYQE | 34.52 |
| consensus GPR31: consensus GPCR of human GPR31 (protein) MPFPNCSAPSTVVETAVAVLLGLECGLGLLGNAVALWTFFFRLKVWKPYAVYLLNLVLADLLLAACLPFLAAFYLRLKTWHLGRVGCQALLFLLDLSRGVGVAFLTAVALDRYLRVVHPRLKVNLLSPRAAWGISGLVWLLMVALTHLSLISESTECPSFYPRDGSFSIIWQEALFFLQFVLPFGLILFCNAGIIRTLQKRLRDPDKQPKLQRAQALVTLVVVLFALCFLPSFLARVLMAIFRNLGSCRALCAVVHTSDVTGSLTYLQSVLNPVVYCFSNPAFRSSYRKVFHLRGRGQAAEPPGFDPRDSYS | 112.78 |
| consensus VN1R1: consensus GPCR of human VN1R1 (protein) MVGDTLKLLSPLMTRYFFLLFYSTDSSDFNENQHPLDFDGMASGKLESGISFLIQTGVGILGNSFLLCFYNFILLTGNKLRPMDLILSQLALANSLVLFSKGIPQTMAAFGLKYFLDDTGCKLVFYYHRVGTGVSFSTICLLNGFQAIKLNPSICRWLELKIRSPKFIGFCCFLCWAPHLLINTSVLFLVNGPLNSKNLSVKNNYGYCSWKMPERFGTLYTVLYFSPDFMSLGFMVWASGSMVFVLYRHKQRVQHIHSNRLSSRPSHEARATHTIMVLVSSFFAFYSVHSILTIWMTVVANPGQWIVNNSVFVASCFPAFSPFVLIFSDTHVSQFCFACRTKKTLFPDLVAMP | 4.17 |
| consensus TAAR6: consensus GPCR of human TAAR6, N-terminal structure of the original maintained (protein) MSSNSSPLAAVQLCYENVNGSCVKTPYSPGSRVILYIVFGFGAVLAVFGNLLVMISILHFKQLHSPTNFLIASLACADFLVGVTVMPFSMVRSVESCWYFGRSFCTFHTCCDVAFCYSSLFHLCFISIDRYIAVTDPLVYPTKFTVSVSGICISISWILPLVYSGAVFYTGAYDDGLEELSSALNCVGGCQTVVNQNWVLIDFLSFFIPTLVMIILYSNIFLVARQQAKKIENTGSKTESSSESYKARVAKRERKAAKTLGITVVAFMISWLPYSIDSLIDAFMGFITPAYIYEICCWCAYYNSAMNPLIYALFYPWFRKAIKVIVSGQVFKNSSATMNLFSEQI | 21.82 |
| consensus MrgprE: consensus GPCR of human MrgprE (protein) MEPREAGQHVGAANGAQEDVAFNLIILSLTEGLGLGGLLGNGAVLWLLSSNVYRNPFSIYLLDVACADLIFLGCHMVAIIPDLLQGRLDFPGFVQTSLATLRFFCYIVGLSLLAAVSVEQCLATLFPAWYSCRRPRHLTTCVCALTWALCLLLHLLLSGACTQFFGEPSRHLCRTLWLVAAVLLALLCCTMCGASLLLLLRVERGPQRPQPRGFPGLVLLAVLLFLFCGLPFGIYWLSRNLLWHIPHYFYHFSFLMAAVHCAAKPVIYFCLGSAQGRRLPLRLVLQRALGDEAELGAVRETSRRGLVDIAA | 27.41 |
| consensus GPR88: consensus GPCR of human GPR88 (protein) MTNSTSGGSLLLLCSWAGRRIPVSLLYSGLAIGGTLANGMVIYLVSSFRKLQTTSNAFIVNGCAADLSVCALWMPQEAVLGLLPTGSAEPPGGSYRLLRGGLLGLGLTVSLLSHCLVALNRYLLITRAPAYQALYQRRHTAGMLALSWALALGLVLLLPPWAPRPGAAPPRVHYPALLAAAALLAQTALLLHCYLGIVRRVRVSVKRVSVLNFHLLHQLPGCAAAAHPRRAQRRLSGLSVLLLCCVFLLATQPLVWVSLASGFSLPVPWGVQAASWLLCCALSALNPLLYTWRNEEFRRSVRSVLPGVGDAAAAAVAAAVPAVQLGTRAAGQHW | 27.25 |
| consensus GPR65: consensus GPCR of human GPR65 (protein) MNSTCIEEQHDLDHYLFPIVYIFVIIVSIPANIGSLCVSFLQAKKENELGIYLFSLSLSDLLYALTLPLWIDYTWNKDNWTFSPALCKGSAFLMYMNFYSSTAFLTCIAVDRYLAVVYPLKFSFLRTRRFAFMVSLSIWVLETIFNAVILWEDETFVEYCDAKKSNFTLCYDKYPLEKWQINLNLFRTCTGYAIPLVIIMICNQKVYQAVRHNQATENSEKKRIIKLLVSITLTFVLCFTPFHVMLLIRSILEHDVNFDDHYFDDPKSGKQTYKIYRITVALTSLNCVADPILYCFVTETGRSDMWNILKFCTGKLNKSQRQRKSILSMSTKDTVELEILE | 59.40 |
| consensus VN1R4: consensus GPCR of human VN1R4 (protein) MASRYVAVGMIFLSQTVVGVLGNFSLLLHYLSLYCTGCRLRSTDLIVKHLIVANFLALLCKGVPQTMAAFGVRYFLNAIGCKLVFYLHRVGRGVSIGTTCLLSVFQVITISSRKSRWAKLKEKAPKHVGFSVLLCWILCMLVNIIFPMYVTGKWNYTNITVNKDLGYCSGGGNNKIAQTLRAMLLSFPDVLCLGLMLWASSSMVCILHRHKQRVQHIDRSNLSPRASPENRATQSILILVSTFVSSYTLSCLFQVCIALLDNPNSLLVNTSALMSVCFPTLSPFVLMSCDPSVYRLCFAWKR | 0.87 |
| consensus TAAR8: consensus GPCR of human TAAR8 (protein) MTSNFSQPVVQLCYENVNGSCIKTPYSPGSRVILYTVFGFGSLLAVFGNLLVMTSVLHFKQLHSPANFLIASLACADFLVGVTVMPFSMVRSVESCWYFGAKFCTLHSCCDVAFCYSSLFHLCFISIDRYIAVTDPLVYPTKFTVSVSGICISISWILPLVYSGAVFYTGVSDDGMEELVSALNCVGGCQIVVNQDWVLIDFLLFFIPTLVMIILYSKIFLVAKQQAIKIETTGSKAESSSESYKARVAKRERKAAKTLGVTVVAFMISWLPYTIDTLIDAFMGFITPAYIYEICCWGAYYNSAMNPLIYALFYPWFRKAIKLILSGEVLKASSSTISLFSE | 5.54 |
